Data as given in PubChem BioAssay AID493246 (Drosophila RNAi Screening Center, 2011)
The deposit covers about 21,000 reagents; below is a random part of those that have a named target and a result. Over the whole deposit, 429 (2%) were called active. 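Values are raw and not normalised between plates; calls rest on per-plate z-scores that were not deposited.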 Reagents against one gene are numbered here. Not stated in the record: the amount of reagent, the time to read-out.

- Test: 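Genes fly cells need to grow and stay alive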 (primary screen)
- System: Drosophila Kc and S2R+ cells
- Reagent: long dsRNA against Drosophila genes
- Measured: 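Cell number per well after knock-down, printed as raw plate values; calls were based on per-plate z-scores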
- Reading the numbers: Kc cell number and S2R+ cell number: higher = more cells remaining
- Active means: 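Counted as a hit if cell number falls by a z-score of at least 3 within its plate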

After knock-down of l(1)10Bb (lethal (1) 10Bb), the record shows Kc cell number, rep 1 = 1.50e6; Kc cell number, rep 2 = 1.48e6; S2R+ cell number, rep 1 = 9.44e5; S2R+ cell number, rep 2 = 1.04e6; inactive.
Against Dref (DNA replication-related element factor), the entry reads Kc cell number, rep 1 = 1.33e6; Kc cell number, rep 2 = 1.41e6; S2R+ cell number, rep 1 = 1.13e6; S2R+ cell number, rep 2 = 1.24e6; inactive.
After knock-down of CG5776 the results were Kc cell number, rep 1 = 1.44e6; Kc cell number, rep 2 = 1.60e6; S2R+ cell number, rep 1 = 1.34e6; S2R+ cell number, rep 2 = 1.30e6; inactive.
Against CR18166 (pseudo) #1, the entry reads Kc cell number, rep 1 = 1.25e6; Kc cell number, rep 2 = 1.40e6; S2R+ cell number, rep 1 = 1.07e6; S2R+ cell number, rep 2 = 1.14e6; inactive.
With knock-down of CR18166 (pseudo) #2 the results were Kc cell number, rep 1 = 1.67e6; Kc cell number, rep 2 = 1.63e6; S2R+ cell number, rep 1 = 1.03e6; S2R+ cell number, rep 2 = 1.13e6; inactive.
Silencing of CG6454 resulted in: Kc cell number, rep 1 = 1.55e6; Kc cell number, rep 2 = 1.55e6; S2R+ cell number, rep 1 = 1.17e6; S2R+ cell number, rep 2 = 1.18e6; inactive.
Depletion of CG12231 resulted in: Kc cell number, rep 1 = 1.52e6; Kc cell number, rep 2 = 1.55e6; S2R+ cell number, rep 1 = 1.10e6; S2R+ cell number, rep 2 = 1.23e6; inactive.
With knock-down of MED4 (Mediator complex subunit 4), the record shows Kc cell number, rep 1 = 1.44e6; Kc cell number, rep 2 = 1.49e6; S2R+ cell number, rep 1 = 1.13e6; S2R+ cell number, rep 2 = 1.08e6; inactive.
After knock-down of bam (bag of marbles) the results were Kc cell number, rep 1 = 1.59e6; Kc cell number, rep 2 = 1.58e6; S2R+ cell number, rep 1 = 1.05e6; S2R+ cell number, rep 2 = 1.19e6; inactive.
Wdr82 (WD repeat domain 82) scored Kc cell number, rep 1 = 1.55e6; Kc cell number, rep 2 = 1.65e6; S2R+ cell number, rep 1 = 1.12e6; S2R+ cell number, rep 2 = 1.19e6; inactive.
For CycE (Cyclin E) #1, the entry reads Kc cell number, rep 1 = 1.05e6; Kc cell number, rep 2 = 1.10e6; S2R+ cell number, rep 1 = 6.34e5; S2R+ cell number, rep 2 = 6.82e5; active.
After knock-down of CycE (Cyclin E) #2, the record shows Kc cell number, rep 1 = 1.31e6; Kc cell number, rep 2 = 1.36e6; S2R+ cell number, rep 1 = 5.21e5; S2R+ cell number, rep 2 = 6.24e5; active.

Reformatted: entries from further up
| gene knocked down | reagent no. | Kc cell number, rep 1 | Kc cell number, rep 2 | S2R+ cell number, rep 1 | S2R+ cell number, rep 2 | call |
| --- | --- | --- | --- | --- | --- | --- |
| CR18166 (pseudo) | 1 | 1.25e6 | 1.40e6 | 1.07e6 | 1.14e6 | inactive |
| CR18166 (pseudo) | 2 | 1.67e6 | 1.63e6 | 1.03e6 | 1.13e6 | inactive |
